Nine molecules from article PMC7049810 can be followed below.

In assay [1] the target is T1, NlpI, soluble version lacking its membrane anchor (Escherichia coli) (UniProt P0AFB1).
T1 sequence (chain, where used as fl-NlpI in MST, NT647 RED-NHS dye on amines): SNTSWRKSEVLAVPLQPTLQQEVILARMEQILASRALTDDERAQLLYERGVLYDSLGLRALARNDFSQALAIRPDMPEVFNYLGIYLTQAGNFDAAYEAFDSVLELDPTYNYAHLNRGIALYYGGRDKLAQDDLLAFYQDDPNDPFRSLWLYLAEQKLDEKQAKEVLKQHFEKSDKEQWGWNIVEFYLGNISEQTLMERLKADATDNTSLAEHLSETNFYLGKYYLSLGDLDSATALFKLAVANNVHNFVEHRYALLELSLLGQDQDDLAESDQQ
The assay is described as follows: affinity purification with mass spectrometry; NlpI coupled to Sepharose; detergent-solubilized E. coli membrane extract bound at low salt (50 mM NaCl), 6°C, eluted with 1 M NaCl; label-free LC-MS against a Tris-Sepharose control column; only the target purified.

Assay [2] deals with T1, NlpI, soluble version lacking its membrane anchor (Escherichia coli). The assay is described as follows: affinity purification with mass spectrometry; NlpI coupled to Sepharose; detergent-solubilized E. coli membrane extract bound at high salt (400 mM NaCl), 6°C, eluted with 2 M NaCl; label-free LC-MS against a Tris-Sepharose control column; only the target purified.

No constants are given. Whether binding was seen depends on the method and setting. In cells and extracts the contact can be indirect. Here binding means that the protein was enriched with, or labelled near, the bait; the list need not be complete.

B1: PBP7, endogenous in E. coli membrane extract (enzyme, UniProt P0AFI5 26-310)
chain: KTAAATTASQPEIASGSAMIVDLNTNKVIYSNHPDLVRPIASISKLMTAMVVLDARLPLDEKLKVDISQTPEMKGVYSRVRLNSEISRKDMLLLALMSSENRAAASLAHHYPGGYKAFIKAMNAKAKSLGMNNTRFVEPTGLSVHNVSTARDLTKLLIASKQYPLIGQLSTTREDMATFSNPTYTLPFRNTNHLVYRDNWNIQLTKTGFTNAAGHCLVMRTVINNKPVALVVMDAFGKYTHFADASRLRTWIETGKVMPVPAAALSYKKQKAAQMAAAGQTAQND
On to B1, for which the binding result in assay [1] is given as “binds”.

B2: AmiC, endogenous in E. coli membrane extract (enzyme, UniProt P63883 32-417)
chain: AVSQVVAVRVWPASSYTRVTVESNRQLKYKQFALSNPERVVVDIEDVNLNSVLKGMAAQIRADDPFIKSARVGQFDPQTVRMVFELKQNVKPQLFALAPVAGFKERLVMDLYPANAQDMQDPLLALLEDYNKGDLEKQVPPAQSGPQPGKAGRDRPIVIMLDPGHGGEDSGAVGKYKTREKDVVLQIARRLRSLIEKEGNMKVYMTRNEDIFIPLQVRVAKAQKQRADLFVSIHADAFTSRQPSGSSVFALSTKGATSTAAKYLAQTQNASDLIGGVSKSGDRYVDHTMFDMVQSLTIADSLKFGKAVLNKLGKINKLHKNQVEQAGFAVLKAPDIPSILVETAFISNVEEERKLKTATFQQEVAESILAGIKAYFADGATLARRG
Turning to B2, the binding result in assay [1] was “binds”.

B3: PBP3, endogenous in E. coli membrane extract (enzyme, UniProt P0AD68 1-577)
chain: MKAAAKTQKPKRQEEHANFISWRFALLCGCILLALAFLLGRVAWLQVISPDMLVKEGDMRSLRVQQVSTSRGMITDRSGRPLAVSVPVKAIWADPKEVHDAGGISVGDRWKALANALNIPLDQLSARINANPKGRFIYLARQVNPDMADYIKKLKLPGIHLREESRRYYPSGEVTAHLIGFTNVDSQGIEGVEKSFDKWLTGQPGERIVRKDRYGRVIEDISSTDSQAAHNLALSIDERLQALVYRELNNAVAFNKAESGSAVLVDVNTGEVLAMANSPSYNPNNLSGTPKEAMRNRTITDVFEPGSTVKPMVVMTALQRGVVRENSVLNTIPYRINGHEIKDVARYSELTLTGVLQKSSNVGVSKLALAMPSSALVDTYSRFGLGKATNLGLVGERSGLYPQKQRWSDIERATFSFGYGLMVTPLQLARVYATIGSYGIYRPLSITKVDPPVPGERVFPESIVRTVVHMMESVALPGGGGVKAAIKGYRIAIKTGTAKKVGPDGRYINKYIAYTAGVAPASQPRFALVVVINDPQAGKYYGGAVSAPVFGAIMGGVLRTMNIEPDALTTGDKNEFV
B3: the binding entry in assay [1] and in assay [2] was “binds” each time.

B4: MltC, endogenous in E. coli membrane extract (enzyme, UniProt P0C066 17-359)
chain: CSTTKKGDTYNEAWVKDTNGFDILMGQFAHNIENIWGFKEVVIAGPKDYVKYTDQYQTRSHINFDDGTITIETIAGTEPAAHLRRAIIKTLLMGDDPSSVDLYSDVDDITISKEPFLYGQVVDNTGQPIRWEGRASNFADYLLKNRLKSRSNGLRIIYSVTINMVPNHLDKRAHKYLGMVRQASRKYGVDESLILAIMQTESSFNPYAVSRSDALGLMQVVQHTAGKDVFRSQGKSGTPSRSFLFDPASNIDTGTAYLAMLNNVYLGGIDNPTSRRYAVITAYNGGAGSVLRVFSNDKIQAANIINTMTPGDVYQTLTTRHPSAESRRYLYKVNTAQKSYRRR
With B4, the binding entry in assay [1] is recorded as “binds”.

B5: AmiA, endogenous in E. coli membrane extract (enzyme, UniProt P36548 35-289)
chain: KDELLKTSNGHSKPKAKKSGGKRVVVLDPGHGGIDTGAIGRNGSKEKHVVLAIAKNVRSILRNHGIDARLTRSGDTFIPLYDRVEIAHKHGADLFMSIHADGFTNPKAAGASVFALSNRGASSAMAKYLSERENRADEVAGKKATDKDHLLQQVLFDLVQTDTIKNSLTLGSHILKKIKPVHKLHSRNTEQAAFVVLKSPSVPSVLVETSFITNPEEERLLGTAAFRQKIATAIAEGVISYFHWFDNQKAHSKKR
As for B5, in assay [2], the binding result was “binds”.

B6: FtsK, endogenous in E. coli membrane extract (protein, UniProt P46889 1-1329)
chain: MSQEYIEDKEVTLTKLSSGRRLLEALLILIVLFAVWLMAALLSFNPSDPSWSQTAWHEPIHNLGGMPGAWLADTLFFIFGVMAYTIPVIIVGGCWFAWRHQSSDEYIDYFAVSLRIIGVLALILTSCGLAAINADDIWYFASGGVIGSLLSTTLQPLLHSSGGTIALLCVWAAGLTLFTGWSWVTIAEKLGGWILNILTFASNRTRRDDTWVDEDEYEDDEEYEDENHGKQHESRRARILRGALARRKRLAEKFINPMGRQTDAALFSGKRMDDDEEITYTARGVAADPDDVLFSGNRATQPEYDEYDPLLNGAPITEPVAVAAAATTATQSWAAPVEPVTQTPPVASVDVPPAQPTVAWQPVPGPQTGEPVIAPAPEGYPQQSQYAQPAVQYNEPLQQPVQPQQPYYAPAAEQPAQQPYYAPAPEQPVAGNAWQAEEQQSTFAPQSTYQTEQTYQQPAAQEPLYQQPQPVEQQPVVEPEPVVEETKPARPPLYYFEEVEEKRAREREQLAAWYQPIPEPVKEPEPIKSSLKAPSVAAVPPVEAAAAVSPLASGVKKATLATGAAATVAAPVFSLANSGGPRPQVKEGIGPQLPRPKRIRVPTRRELASYGIKLPSQRAAEEKAREAQRNQYDSGDQYNDDEIDAMQQDELARQFAQTQQQRYGEQYQHDVPVNAEDADAAAEAELARQFAQTQQQRYSGEQPAGANPFSLDDFEFSPMKALLDDGPHEPLFTPIVEPVQQPQQPVAPQQQYQQPQQPVPPQPQYQQPQQPVAPQPQYQQPQQPVAPQQQYQQPQQPVAPQQQYQQPQQPVAPQPQDTLLHPLLMRNGDSRPLHKPTTPLPSLDLLTPPPSEVEPVDTFALEQMARLVEARLADFRIKADVVNYSPGPVITRFELNLAPGVKAARISNLSRDLARSLSTVAVRVVEVIPGKPYVGLELPNKKRQTVYLREVLDNAKFRDNPSPLTVVLGKDIAGEPVVADLAKMPHLLVAGTTGSGKSVGVNAMILSMLYKAQPEDVRFIMIDPKMLELSVYEGIPHLLTEVVTDMKDAANALRWCVNEMERRYKLMSALGVRNLAGYNEKIAEADRMMRPIPDPYWKPGDSMDAQHPVLKKEPYIVVLVDEFADLMMTVGKKVEELIARLAQKARAAGIHLVLATQRPSVDVITGLIKANIPTRIAFTVSSKIDSRTILDQAGAESLLGMGDMLYSGPNSTLPVRVHGAFVRDQEVHAVVQDWKARGRPQYVDGITSDSESEGGAGGFDGAEELDPLFDQAVQFVTEKRKASISGVQRQFRIGYNRAARIIEQMEAQGIVSEQGHNGNREVLAPPPFD
On to B6, for which the binding result in assay [1] and in assay [2] was “binds” each time.

B7: PBP1B, endogenous in E. coli membrane extract (enzyme, UniProt P02919 1-844)
chain: MAGNDREPIGRKGKPTRPVKQKVSRRRYEDDDDYDDYDDYEDEEPMPRKGKGKGKGRKPRGKRGWLWLLLKLAIVFAVLIAIYGVYLDQKIRSRIDGKVWQLPAAVYGRMVNLEPDMTISKNEMVKLLEATQYRQVSKMTRPGEFTVQANSIEMIRRPFDFPDSKEGQVRARLTFDGDHLATIVNMENNRQFGFFRLDPRLITMISSPNGEQRLFVPRSGFPDLLVDTLLATEDRHFYEHDGISLYSIGRAVLANLTAGRTVQGASTLTQQLVKNLFLSSERSYWRKANEAYMALIMDARYSKDRILELYMNEVYLGQSGDNEIRGFPLASLYYFGRPVEELSLDQQALLVGMVKGASIYNPWRNPKLALERRNLVLRLLQQQQIIDQELYDMLSARPLGVQPRGGVISPQPAFMQLVRQELQAKLGDKVKDLSGVKIFTTFDSVAQDAAEKAAVEGIPALKKQRKLSDLETAIVVVDRFSGEVRAMVGGSEPQFAGYNRAMQARRSIGSLAKPATYLTALSQPKIYRLNTWIADAPIALRQPNGQVWSPQNDDRRYSESGRVMLVDALTRSMNVPTVNLGMALGLPAVTETWIKLGVPKDQLHPVPAMLLGALNLTPIEVAQAFQTIASGGNRAPLSALRSVIAEDGKVLYQSFPQAERAVPAQAAYLTLWTMQQVVQRGTGRQLGAKYPNLHLAGKTGTTNNNVDTWFAGIDGSTVTITWVGRDNNQPTKLYGASGAMSIYQRYLANQTPTPLNLVPPEDIADMGVDYDGNFVCSGGMRILPVWTSDPQSLCQQSEMQQQPSGNPFDQSSQPQQQPQQQPAQQEQKDSDGVAGWIKDMFGSN
Take B7: in assay [1], the binding entry was “binds”.

B8: EnvC, endogenous in E. coli membrane extract (protein, UniProt P37690 35-419)
chain: DERDQLKSIQADIAAKERAVRQKQQQRASLLAQLKKQEEAISEATRKLRETQNTLNQLNKQIDEMNASIAKLEQQKAAQERSLAAQLDAAFRQGEHTGIQLILSGEESQRGQRLQAYFGYLNQARQETIAQLKQTREEVAMQRAELEEKQSEQQTLLYEQRAQQAKLTQALNERKKTLAGLESSIQQGQQQLSELRANESRLRNSIARAEAAAKARAEREAREAQAVRDRQKEATRKGTTYKPTESEKSLMSRTGGLGAPRGQAFWPVRGPTLHRYGEQLQGELRWKGMVIGASEGTEVKAIADGRVILADWLQGYGLVVVVEHGKGDMSLYGYNQSALVSVGSQVRAGQPIALVGSSGGQGRPSLYFEIRRQGQAVNPQPWLGR
Consider B8, for which the binding entry in assay [1] and in assay [2] was “binds” in each case.

B9: PBP1C, endogenous in E. coli membrane extract (enzyme, UniProt P76577 1-770)
chain: MPRLLTKRGCWITLAAAPFLLFLAAWGADKLWPLPLHEVNPARVVVAQDGTPLWRFADADGIWRYPVTIEDVSPRYLEALINYEDRWFWKHPGVNPFSVARAAWQDLTSGRVISGGSTLTMQVARLLDPHPKTFGGKIRQLWRALQLEWHLSKREILTLYLNRAPFGGTLQGIGAASWAYLGKSPANLSYSEAAMLAVLPQAPSRLRPDRWPERAEAARNKVLERMAVQGVWSREQVKESREEPIWLAPRQMPQLAPLFSRMMLGKSKSDKITTTLDAGLQRRLEELAQNWKGRLPPRSSLAMIVVDHTDMRVRGWVGSVDLNDDSRFGHVDMVNSIRSPGSVLKPFVYGLALDEGLIHPASLLQDVPRRTGDYRPGNFDSGFHGPISMSEALVRSLNLPAVQVLEAYGPKRFAAKLRNVGLPLYLPNGAAPNLSLILGGAGAKLEDMAAAYTAFARHGKAGKLRLQPDDPLLERPLMSSGAAWIIRRIMADEAQPLPDSALPRVAPLAWKTGTSYGYRDAWAIGVNARYVIGIWTGRPDGTPVVGQFGFASAVPLLNQVNNILLSRSANLPEDPRPNSVTRGVICWPGGQSLPEGDGNCRRRLATWLLDGSQPPTLLLPEQEGINGIRFPIWLDENGKRVAADCPQARQEMINVWPLPLEPWLPASERRAVRLPPASTSCPPYGHDAQLPLQLTGVRDGAIIKRLPGAAEATLPLQSSGGAGERWWFLNGEPLTERGRNVTLHLTDKGDYQLLVMDDVGQIATVKFVMQ
As for B9, in assay [1], the binding result was “binds”.
